Experimental findings from paper PMC5729022 are described below.

Sequences of proteins named here, by UniProt entry; tags and fusion partners are left off. A change or cut given only in a name is not applied to a line headed by its entry. Residues count along the entry.
UniProt P02453: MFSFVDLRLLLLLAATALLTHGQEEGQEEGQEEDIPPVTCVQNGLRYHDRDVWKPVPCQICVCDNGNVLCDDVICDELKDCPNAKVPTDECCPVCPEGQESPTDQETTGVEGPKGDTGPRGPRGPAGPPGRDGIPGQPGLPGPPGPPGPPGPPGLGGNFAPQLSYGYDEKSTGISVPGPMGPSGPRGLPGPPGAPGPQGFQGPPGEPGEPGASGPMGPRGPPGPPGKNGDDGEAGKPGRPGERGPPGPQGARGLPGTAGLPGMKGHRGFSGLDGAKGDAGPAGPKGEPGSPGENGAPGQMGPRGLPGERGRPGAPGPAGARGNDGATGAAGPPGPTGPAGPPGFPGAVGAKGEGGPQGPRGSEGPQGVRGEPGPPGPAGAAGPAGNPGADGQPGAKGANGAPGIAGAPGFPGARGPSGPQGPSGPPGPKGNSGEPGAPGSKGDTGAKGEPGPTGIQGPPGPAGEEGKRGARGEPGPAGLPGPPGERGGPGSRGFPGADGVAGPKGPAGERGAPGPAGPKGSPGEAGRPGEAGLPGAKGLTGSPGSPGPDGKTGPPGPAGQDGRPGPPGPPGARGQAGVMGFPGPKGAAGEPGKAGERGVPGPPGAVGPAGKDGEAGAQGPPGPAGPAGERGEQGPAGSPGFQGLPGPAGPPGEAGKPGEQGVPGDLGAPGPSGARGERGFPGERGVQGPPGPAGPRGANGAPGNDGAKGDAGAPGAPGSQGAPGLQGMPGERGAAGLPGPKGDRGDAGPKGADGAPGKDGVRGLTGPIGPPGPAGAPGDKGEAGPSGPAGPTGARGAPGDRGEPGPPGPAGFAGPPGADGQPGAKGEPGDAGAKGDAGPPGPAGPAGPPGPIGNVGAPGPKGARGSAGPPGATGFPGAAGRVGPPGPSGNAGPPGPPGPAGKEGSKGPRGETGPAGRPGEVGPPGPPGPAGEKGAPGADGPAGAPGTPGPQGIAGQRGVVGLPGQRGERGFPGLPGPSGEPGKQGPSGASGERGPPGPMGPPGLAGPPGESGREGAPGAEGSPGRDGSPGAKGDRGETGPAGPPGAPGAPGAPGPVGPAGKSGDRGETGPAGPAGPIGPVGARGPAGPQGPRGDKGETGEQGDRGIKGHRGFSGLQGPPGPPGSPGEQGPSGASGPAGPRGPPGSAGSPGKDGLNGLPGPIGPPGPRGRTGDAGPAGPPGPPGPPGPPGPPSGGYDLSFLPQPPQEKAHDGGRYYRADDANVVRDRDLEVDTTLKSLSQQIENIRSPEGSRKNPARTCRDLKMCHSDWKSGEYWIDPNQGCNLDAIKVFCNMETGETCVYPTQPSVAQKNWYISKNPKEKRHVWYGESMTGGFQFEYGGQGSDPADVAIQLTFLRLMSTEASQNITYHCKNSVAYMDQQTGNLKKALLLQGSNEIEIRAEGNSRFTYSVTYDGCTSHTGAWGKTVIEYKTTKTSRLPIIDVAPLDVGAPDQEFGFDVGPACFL
UniProt P02465: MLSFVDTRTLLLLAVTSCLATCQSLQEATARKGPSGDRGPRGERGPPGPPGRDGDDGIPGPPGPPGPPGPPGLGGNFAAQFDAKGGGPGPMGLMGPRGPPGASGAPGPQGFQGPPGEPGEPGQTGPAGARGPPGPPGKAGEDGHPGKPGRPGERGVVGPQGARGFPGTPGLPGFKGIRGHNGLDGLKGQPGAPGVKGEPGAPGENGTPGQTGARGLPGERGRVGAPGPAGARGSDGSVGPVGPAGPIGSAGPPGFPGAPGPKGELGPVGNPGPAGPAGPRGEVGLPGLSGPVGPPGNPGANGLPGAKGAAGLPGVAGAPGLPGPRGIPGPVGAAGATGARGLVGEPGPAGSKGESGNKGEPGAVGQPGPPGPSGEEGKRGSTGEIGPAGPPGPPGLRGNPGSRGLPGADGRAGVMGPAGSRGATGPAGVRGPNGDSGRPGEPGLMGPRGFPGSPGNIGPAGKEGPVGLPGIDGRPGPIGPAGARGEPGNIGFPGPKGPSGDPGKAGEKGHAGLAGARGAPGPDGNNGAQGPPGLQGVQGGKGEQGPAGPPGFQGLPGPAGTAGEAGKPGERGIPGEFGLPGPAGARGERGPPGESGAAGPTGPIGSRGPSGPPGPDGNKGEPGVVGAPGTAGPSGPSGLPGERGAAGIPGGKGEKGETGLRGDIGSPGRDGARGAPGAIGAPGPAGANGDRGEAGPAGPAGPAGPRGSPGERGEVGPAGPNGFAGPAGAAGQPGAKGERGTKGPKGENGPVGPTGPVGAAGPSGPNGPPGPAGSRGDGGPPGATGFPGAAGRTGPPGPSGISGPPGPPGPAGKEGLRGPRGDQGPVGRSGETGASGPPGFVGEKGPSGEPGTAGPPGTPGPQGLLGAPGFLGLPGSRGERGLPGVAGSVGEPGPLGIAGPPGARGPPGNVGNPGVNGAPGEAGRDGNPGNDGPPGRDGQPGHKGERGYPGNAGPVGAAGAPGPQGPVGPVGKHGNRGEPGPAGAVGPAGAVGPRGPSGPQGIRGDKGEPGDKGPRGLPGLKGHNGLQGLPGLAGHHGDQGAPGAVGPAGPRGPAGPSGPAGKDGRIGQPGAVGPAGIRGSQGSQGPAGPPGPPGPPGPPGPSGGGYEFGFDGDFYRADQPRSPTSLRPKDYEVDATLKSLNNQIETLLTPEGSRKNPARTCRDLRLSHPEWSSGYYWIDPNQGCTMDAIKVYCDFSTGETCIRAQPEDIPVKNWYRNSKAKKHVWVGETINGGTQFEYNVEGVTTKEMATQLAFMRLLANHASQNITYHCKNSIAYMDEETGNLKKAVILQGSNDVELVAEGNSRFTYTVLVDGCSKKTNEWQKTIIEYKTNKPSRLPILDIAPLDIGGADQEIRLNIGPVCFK
UniProt P56199, residues 169-363: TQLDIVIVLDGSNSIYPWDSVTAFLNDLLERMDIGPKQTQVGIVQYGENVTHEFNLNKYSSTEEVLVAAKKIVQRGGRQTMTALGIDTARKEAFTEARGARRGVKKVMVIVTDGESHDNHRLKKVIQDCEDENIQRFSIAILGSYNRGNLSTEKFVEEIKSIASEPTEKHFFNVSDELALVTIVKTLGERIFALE

Results are given in words; binding and its absence hold for the method and conditions named. Some results given as binding are weak or reduced against the parent protein; the word gives no strength.

This experiment addresses collagen type I (Col I) coating of the I domain binding assay (bovine) (UniProt P02453+P02465). As to the kind of experiment: ELISA; collagens or peptides coated on Immulon 2HB wells (10 µg/ml in 10 mM acetic acid, overnight, 4 °C), blocked with 5% BSA; GST-I domain at 10 µg/mL in TBS (50 mM TRIS, 140 mM NaCl, pH 7.4, 1 mg/mL BSA) with 5 mM MgCl2, 1 h, room temperature; GST detected with HRP conjugate, A450; both purified. A general note: ELISA stands for enzyme-linked immunosorbent assay.

Take “recombinant human integrin α1 I domain (GST fusion) (from UniProt P56199 169-363) (domain or fragment)”: the binding entry is given as “binds”.
